Measured values published in paper PMC10925144.
No constants are given. Whether binding was seen depends on the method and setting. Binding calls can cover weak binding; strength is not graded here.

Experiments:
SPO-11 (C. elegans) = biological target: T1, SPO-11 (C. elegans) (UniProt Q22236); assay: two-hybrid; Gal4 activating domain (pGAD-C1) and binding domain (pGBD-C1) fusions co-transformed into yeast PJ69-4a; spotted on SC-LEU-TRP-HIS (interaction) and SC-LEU-TRP-ADE (more stringent, strong interactions); 30°C, 72 h
T1 sequence: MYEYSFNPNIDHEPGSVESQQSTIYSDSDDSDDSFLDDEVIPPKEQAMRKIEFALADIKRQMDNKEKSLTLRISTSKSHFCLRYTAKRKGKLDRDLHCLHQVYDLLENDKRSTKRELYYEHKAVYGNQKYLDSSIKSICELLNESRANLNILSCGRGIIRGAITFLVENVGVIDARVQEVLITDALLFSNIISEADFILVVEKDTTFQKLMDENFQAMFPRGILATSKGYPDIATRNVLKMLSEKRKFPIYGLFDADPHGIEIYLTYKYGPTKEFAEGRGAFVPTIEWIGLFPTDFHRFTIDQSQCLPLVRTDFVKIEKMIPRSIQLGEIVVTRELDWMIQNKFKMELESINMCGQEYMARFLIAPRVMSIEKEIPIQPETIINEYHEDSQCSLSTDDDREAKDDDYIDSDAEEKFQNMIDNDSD

XND-1 (C. elegans) = XND-1 (C. elegans) (UniProt O45134); assay: as above

Row | binding (SPO-11 (C. elegans)) | binding (XND-1 (C. elegans)) | Substance
1 | binds | – | DSB-1 (C. elegans)
2 | binds | – | DSB-1(1–114) (C. elegans) (domain or fragment)
3 | binds | – | DSB-1(1–145) (C. elegans) (domain or fragment)
4 | – | binds | HIM-17 (from UniProt Q22360)
